Data on one sequence can be found in publication PMC5668434, “Modulation of telomere protection by the PI3K/AKT pathway” (Nature Communications, 2017).

Protein sequences, listed by entry. Tags and fused reporters are not part of them. Lines headed by an entry give the natural chain unless they say otherwise; changes in a name come on top.
UniProt P70371: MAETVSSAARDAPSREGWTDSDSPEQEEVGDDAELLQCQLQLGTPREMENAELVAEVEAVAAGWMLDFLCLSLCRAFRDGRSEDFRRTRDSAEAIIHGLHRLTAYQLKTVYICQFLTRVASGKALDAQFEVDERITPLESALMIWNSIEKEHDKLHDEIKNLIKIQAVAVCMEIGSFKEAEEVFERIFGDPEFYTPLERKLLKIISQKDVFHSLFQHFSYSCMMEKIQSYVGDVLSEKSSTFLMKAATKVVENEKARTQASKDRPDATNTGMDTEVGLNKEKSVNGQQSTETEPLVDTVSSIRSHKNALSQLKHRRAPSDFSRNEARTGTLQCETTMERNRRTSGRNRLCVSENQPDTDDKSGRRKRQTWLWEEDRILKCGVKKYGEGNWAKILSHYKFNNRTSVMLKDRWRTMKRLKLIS

In the data set the target is GST-TRF1 WT (mouse) (UniProt P70371). Nature of the data set: EMSA. As to conditions: supershift with anti-TRF1 antibody, 1 ug protein; 20 mM HEPES-KOH pH 7.9, 150 mM KCl, 5% glycerol, 4% Ficoll, 1 mM EDTA, 0.1 mM MgCl2, 0.5 mM DTT, 20 ug BSA, 1 ug poly(dI-dC), 30 ul, 20 min, room temperature; recombinant protein; protein details: N-terminal 6xHis and GST; label: 32P 5'-end label (T4 PNK).

For at least one entry, the source does not settle the construct or the ends of the probe.

In the case of “GGGTTAGGGTTAGGGTTAGGGTTAGGGTTAGGGTTAGGGTTAGGGCCCCTC (double strand) [ds(TTAGGG)7 telomeric probe]”, the binding result was “binds”.
